These are yes or no findings as the source states them, for the method shown. Binding seen in cells or lysates may run through a third protein. Some binding calls cover weakened binding; strength is not graded here.
Experiments:
[1] = target: phosphorylated anaplastic lymphoma kinase (p-ALK) (human (endogenous in SKOV3 and SUM149)) (UniProt Q9UM73); experiment: proximity ligation; Duo-link assay for p-ALK and CDK9 in cells (red dots); SKOV3 cells with or without 0.5 uM lorlatinib for 24 h; SUM149 TNBC parental cells and cells with acquired PARP inhibitor resistance (nos. 6 and 15)
[2] = target: constitutively active (Phe1174Leu) ALK (UniProt Q9UM73); experiment: co-IP; cells coexpressing WT, Phe1174Leu or Ile1250Thr ALK with FLAG-tagged CDK9; IP with the indicated antibodies, WB of FLAG-tagged CDK9; IP buffer 25 mM Tris pH 7.4, 150 mM NaCl, 0.1% NP-40, 1 mM EDTA, 10% glycerol, 4 C
[3] = target: kinase-dead (Ile1250Thr) ALK (UniProt Q9UM73); experiment: as above
[4] = target: WT ALK (expressed from plasmid) (UniProt Q9UM73); experiment: as above

The chains behind the UniProt entries cited, without tags or fusion partners. Where a name states a change or a piece, a line headed by the entry shows the natural chain unless it says otherwise. A line that says so, or that is headed by a name, gives the form on record, which may keep a tag or linker. Residues count along the entry.
WT ALK (expressed from plasmid) (Q9UM73, residues 19-1620): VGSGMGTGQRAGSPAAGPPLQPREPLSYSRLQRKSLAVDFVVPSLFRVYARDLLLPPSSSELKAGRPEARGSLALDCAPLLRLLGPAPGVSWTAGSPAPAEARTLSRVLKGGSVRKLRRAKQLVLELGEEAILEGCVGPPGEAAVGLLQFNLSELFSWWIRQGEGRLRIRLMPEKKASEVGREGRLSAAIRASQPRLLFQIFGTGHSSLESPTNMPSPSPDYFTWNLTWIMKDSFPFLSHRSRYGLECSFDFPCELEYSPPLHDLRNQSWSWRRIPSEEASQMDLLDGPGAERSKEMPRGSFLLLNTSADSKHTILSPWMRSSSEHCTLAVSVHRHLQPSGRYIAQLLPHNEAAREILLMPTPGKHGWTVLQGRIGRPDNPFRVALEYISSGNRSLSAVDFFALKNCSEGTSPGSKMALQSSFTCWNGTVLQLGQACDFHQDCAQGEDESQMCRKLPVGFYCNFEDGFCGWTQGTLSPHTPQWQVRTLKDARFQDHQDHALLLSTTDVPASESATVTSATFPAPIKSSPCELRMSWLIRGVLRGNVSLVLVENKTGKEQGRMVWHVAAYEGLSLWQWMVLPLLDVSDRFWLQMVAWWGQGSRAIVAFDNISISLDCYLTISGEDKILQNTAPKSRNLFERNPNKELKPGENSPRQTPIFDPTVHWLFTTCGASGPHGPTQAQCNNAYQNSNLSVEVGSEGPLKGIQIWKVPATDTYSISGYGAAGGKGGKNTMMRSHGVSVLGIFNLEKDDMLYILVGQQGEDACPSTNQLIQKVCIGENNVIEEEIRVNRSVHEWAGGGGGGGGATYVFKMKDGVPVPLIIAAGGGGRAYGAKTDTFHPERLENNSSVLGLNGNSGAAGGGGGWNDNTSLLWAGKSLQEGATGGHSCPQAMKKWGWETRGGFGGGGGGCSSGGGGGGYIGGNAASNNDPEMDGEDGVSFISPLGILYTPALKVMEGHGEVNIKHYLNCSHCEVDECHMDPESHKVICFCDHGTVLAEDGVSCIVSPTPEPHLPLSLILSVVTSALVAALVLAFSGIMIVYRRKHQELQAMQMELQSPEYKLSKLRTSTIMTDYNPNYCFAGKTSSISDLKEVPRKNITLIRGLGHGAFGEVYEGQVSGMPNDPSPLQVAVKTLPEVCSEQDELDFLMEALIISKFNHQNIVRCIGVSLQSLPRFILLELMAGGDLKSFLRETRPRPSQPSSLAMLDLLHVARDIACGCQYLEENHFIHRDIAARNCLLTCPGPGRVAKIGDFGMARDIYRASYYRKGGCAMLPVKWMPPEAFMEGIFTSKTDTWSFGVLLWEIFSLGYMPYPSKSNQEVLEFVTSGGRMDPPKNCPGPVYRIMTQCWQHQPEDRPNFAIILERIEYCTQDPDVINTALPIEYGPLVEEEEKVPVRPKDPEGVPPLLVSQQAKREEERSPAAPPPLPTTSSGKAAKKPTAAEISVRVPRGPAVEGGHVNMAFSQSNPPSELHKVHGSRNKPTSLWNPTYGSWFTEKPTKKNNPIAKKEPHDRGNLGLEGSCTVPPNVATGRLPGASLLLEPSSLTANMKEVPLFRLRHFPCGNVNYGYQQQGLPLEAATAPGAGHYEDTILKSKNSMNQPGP
constitutively active (Phe1174Leu) ALK (Q9UM73, form named): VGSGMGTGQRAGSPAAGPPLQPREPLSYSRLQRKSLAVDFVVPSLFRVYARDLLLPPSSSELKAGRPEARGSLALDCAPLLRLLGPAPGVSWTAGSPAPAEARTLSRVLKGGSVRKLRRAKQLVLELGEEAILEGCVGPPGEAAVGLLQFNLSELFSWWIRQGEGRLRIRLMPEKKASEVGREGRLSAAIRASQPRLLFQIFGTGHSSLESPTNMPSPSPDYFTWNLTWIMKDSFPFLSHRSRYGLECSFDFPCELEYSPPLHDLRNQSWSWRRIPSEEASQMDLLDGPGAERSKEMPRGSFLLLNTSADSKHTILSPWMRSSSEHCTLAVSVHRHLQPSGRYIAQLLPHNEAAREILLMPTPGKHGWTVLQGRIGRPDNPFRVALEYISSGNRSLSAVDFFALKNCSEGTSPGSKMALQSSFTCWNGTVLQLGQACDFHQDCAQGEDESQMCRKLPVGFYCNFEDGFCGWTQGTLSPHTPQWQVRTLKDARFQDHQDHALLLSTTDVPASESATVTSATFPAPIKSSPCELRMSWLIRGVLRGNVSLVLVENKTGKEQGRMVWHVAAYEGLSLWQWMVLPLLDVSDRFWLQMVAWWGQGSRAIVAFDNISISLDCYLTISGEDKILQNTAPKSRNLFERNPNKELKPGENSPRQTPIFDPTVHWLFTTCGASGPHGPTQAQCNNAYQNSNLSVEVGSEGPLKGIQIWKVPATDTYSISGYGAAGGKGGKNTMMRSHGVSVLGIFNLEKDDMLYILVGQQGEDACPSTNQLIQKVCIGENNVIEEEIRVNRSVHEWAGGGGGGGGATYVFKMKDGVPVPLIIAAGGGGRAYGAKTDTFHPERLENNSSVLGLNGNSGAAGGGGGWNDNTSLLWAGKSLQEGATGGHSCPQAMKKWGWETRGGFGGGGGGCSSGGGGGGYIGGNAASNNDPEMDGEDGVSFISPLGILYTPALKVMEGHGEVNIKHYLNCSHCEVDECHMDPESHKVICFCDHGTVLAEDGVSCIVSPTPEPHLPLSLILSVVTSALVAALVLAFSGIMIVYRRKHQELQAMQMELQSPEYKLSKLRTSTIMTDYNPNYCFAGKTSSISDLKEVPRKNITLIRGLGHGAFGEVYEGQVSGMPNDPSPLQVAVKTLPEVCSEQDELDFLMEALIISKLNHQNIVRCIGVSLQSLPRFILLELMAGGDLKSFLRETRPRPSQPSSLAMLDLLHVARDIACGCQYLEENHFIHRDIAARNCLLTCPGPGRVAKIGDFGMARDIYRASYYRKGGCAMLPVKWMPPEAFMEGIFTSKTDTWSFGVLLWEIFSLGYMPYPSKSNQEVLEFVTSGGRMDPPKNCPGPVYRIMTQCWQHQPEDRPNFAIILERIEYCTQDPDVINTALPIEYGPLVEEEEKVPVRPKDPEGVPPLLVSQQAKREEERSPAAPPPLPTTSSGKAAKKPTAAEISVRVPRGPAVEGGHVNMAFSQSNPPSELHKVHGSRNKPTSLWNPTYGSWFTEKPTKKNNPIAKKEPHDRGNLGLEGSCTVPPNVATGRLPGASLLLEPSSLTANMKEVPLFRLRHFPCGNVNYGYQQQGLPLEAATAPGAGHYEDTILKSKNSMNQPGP
kinase-dead (Ile1250Thr) ALK (Q9UM73, form named): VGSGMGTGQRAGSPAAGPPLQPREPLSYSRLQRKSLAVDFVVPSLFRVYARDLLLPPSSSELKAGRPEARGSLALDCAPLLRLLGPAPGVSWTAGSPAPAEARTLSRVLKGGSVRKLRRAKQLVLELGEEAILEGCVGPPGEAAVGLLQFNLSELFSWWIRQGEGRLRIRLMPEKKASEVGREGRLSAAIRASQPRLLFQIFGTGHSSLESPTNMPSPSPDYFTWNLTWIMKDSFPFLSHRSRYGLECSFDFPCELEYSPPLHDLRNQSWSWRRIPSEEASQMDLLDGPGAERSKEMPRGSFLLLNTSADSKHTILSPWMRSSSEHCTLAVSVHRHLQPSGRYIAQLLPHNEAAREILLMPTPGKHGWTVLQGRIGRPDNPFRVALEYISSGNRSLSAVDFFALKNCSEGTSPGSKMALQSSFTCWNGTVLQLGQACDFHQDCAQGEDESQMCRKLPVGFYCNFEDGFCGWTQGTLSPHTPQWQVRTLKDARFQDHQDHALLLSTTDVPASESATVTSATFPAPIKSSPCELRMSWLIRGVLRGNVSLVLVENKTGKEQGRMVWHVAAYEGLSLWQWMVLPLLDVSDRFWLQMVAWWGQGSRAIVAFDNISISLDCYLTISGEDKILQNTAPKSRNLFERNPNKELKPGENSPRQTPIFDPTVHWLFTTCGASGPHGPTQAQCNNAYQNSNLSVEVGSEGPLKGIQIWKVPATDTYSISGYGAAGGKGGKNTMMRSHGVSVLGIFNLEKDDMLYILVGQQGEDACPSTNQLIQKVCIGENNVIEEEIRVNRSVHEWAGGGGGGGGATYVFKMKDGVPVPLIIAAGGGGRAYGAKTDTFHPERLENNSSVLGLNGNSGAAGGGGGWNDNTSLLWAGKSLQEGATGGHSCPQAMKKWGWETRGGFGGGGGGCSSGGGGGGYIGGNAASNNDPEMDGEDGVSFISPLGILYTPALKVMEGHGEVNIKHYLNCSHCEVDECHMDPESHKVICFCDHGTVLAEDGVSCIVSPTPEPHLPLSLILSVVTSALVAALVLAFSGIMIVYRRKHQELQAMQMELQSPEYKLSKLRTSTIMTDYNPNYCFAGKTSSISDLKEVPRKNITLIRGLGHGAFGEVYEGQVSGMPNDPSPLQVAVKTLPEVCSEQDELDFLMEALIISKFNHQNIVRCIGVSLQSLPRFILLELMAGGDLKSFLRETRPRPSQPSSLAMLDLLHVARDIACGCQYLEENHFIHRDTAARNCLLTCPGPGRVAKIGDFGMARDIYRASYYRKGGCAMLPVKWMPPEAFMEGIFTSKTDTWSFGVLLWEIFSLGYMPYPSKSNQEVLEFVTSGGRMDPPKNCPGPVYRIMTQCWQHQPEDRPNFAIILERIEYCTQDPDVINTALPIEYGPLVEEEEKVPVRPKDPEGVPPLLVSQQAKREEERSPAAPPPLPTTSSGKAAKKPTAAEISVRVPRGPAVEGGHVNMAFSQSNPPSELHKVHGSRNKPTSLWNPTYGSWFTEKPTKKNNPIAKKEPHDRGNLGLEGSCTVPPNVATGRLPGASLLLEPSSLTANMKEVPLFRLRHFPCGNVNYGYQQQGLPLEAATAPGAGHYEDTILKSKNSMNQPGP
UniProt P50750: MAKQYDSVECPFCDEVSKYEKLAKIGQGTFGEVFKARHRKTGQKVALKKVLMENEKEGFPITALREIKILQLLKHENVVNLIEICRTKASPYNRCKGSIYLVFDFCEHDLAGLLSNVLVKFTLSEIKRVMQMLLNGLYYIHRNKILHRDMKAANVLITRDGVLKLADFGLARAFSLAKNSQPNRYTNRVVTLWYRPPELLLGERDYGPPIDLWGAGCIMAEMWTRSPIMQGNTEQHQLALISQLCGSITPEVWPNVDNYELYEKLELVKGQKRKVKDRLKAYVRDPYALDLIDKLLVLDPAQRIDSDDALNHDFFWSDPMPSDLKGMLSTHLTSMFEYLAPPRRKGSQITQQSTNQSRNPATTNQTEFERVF

| binding [1] | binding [2] | binding [3] | binding [4] | Substance |
| --- | --- | --- | --- | --- |
| binds |  |  |  | cyclin-dependent kinase 9 (CDK9), endogenous (from UniProt P50750 1-372) (enzyme) |
|  | binds | no binding | binds | FLAG-tagged CDK9 (coexpressed with ALK plasmids) (from UniProt P50750 1-372) (enzyme) |

From article PMC9586872
